The nature of this series: general procedure: Fmoc solid-phase peptide synthesis; 2-chlorotrityl chloride-PS-resin; Fmoc Rink-Amide-AM-PS-resin; BAL-AM-PS-resin. The conditions noted are these: conjugation step, TFA salt.

For one substance, conjugation yield results are on record in US9683019B2 (priority 2013, dated 2017).

Strings that start with PEPTIDE1 are HELM notation: dots part the residues, brackets hold end groups and non-standard residues.

For the substance “PEPTIDE1{[pE].R.P.C.L.S.C.K.G.P.[D-Nle].[NHPhenethyl]}|CHEM1{[BCN-trz-PEG23-FA]}$PEPTIDE1,PEPTIDE1,4:R3-7:R3|PEPTIDE1,CHEM1,8:R3-1:R2$$$V2.0”, the conjugation yield turned out to be 21%.
